According to article doi:10.1101/2021.04.01.437949 (bioRxiv, 2021):
Like-named read-outs stand apart in the source and are kept apart here. Results are given in words; binding and its absence hold for the method and conditions named. In cells and extracts the contact can be indirect. Some entries that bind do so weakly or less than the wild type. Where a sequence is shown, tags or fusion partners need not be part of it. One block for each molecule: values may come before it.

Chains of the proteins cited; added tags and fusions are not shown.
UniProt P22147: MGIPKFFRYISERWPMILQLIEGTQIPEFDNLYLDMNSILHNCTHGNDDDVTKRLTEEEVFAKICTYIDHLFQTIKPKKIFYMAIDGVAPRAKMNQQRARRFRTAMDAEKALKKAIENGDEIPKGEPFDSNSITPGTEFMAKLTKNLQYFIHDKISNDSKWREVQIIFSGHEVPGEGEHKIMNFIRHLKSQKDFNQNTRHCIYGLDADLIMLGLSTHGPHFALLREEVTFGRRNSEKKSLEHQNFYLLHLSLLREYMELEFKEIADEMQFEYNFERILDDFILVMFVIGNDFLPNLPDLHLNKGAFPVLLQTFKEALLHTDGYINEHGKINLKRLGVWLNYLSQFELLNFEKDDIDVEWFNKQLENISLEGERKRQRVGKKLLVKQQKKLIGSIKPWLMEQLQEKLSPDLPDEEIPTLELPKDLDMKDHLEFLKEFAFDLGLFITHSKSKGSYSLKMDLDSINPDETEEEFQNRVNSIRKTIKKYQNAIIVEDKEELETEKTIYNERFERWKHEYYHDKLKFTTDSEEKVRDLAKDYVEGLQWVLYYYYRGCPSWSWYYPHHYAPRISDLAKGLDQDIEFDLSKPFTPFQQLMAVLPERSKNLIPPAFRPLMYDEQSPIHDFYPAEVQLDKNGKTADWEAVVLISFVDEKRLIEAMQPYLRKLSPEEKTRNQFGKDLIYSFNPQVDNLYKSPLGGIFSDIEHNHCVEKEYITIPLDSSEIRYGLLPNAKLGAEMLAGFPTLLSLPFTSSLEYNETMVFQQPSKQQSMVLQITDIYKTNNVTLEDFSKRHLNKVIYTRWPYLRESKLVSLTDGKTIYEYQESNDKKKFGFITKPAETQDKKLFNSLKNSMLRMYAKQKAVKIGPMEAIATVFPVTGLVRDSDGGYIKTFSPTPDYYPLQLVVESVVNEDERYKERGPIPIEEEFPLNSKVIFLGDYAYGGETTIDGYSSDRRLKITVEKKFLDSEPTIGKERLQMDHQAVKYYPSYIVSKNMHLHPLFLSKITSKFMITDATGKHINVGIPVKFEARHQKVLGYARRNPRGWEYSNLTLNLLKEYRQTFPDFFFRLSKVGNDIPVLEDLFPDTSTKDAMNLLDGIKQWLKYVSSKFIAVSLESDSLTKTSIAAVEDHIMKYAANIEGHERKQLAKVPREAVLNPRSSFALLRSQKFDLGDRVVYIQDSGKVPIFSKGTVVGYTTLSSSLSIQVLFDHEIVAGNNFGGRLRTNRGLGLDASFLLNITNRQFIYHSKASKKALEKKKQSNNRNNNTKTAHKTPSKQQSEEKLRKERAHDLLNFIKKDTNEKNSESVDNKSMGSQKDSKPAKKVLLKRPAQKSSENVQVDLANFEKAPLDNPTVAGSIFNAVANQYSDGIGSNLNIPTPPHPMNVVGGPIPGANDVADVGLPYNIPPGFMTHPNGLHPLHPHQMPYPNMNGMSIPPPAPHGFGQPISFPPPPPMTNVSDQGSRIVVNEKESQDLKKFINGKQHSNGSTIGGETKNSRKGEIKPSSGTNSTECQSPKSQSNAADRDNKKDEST

Molecular target: T1, TAP-tagged Kap120 (S. cerevisiae, UniProt Q02932 1-1032)
T1 sequence (looked up): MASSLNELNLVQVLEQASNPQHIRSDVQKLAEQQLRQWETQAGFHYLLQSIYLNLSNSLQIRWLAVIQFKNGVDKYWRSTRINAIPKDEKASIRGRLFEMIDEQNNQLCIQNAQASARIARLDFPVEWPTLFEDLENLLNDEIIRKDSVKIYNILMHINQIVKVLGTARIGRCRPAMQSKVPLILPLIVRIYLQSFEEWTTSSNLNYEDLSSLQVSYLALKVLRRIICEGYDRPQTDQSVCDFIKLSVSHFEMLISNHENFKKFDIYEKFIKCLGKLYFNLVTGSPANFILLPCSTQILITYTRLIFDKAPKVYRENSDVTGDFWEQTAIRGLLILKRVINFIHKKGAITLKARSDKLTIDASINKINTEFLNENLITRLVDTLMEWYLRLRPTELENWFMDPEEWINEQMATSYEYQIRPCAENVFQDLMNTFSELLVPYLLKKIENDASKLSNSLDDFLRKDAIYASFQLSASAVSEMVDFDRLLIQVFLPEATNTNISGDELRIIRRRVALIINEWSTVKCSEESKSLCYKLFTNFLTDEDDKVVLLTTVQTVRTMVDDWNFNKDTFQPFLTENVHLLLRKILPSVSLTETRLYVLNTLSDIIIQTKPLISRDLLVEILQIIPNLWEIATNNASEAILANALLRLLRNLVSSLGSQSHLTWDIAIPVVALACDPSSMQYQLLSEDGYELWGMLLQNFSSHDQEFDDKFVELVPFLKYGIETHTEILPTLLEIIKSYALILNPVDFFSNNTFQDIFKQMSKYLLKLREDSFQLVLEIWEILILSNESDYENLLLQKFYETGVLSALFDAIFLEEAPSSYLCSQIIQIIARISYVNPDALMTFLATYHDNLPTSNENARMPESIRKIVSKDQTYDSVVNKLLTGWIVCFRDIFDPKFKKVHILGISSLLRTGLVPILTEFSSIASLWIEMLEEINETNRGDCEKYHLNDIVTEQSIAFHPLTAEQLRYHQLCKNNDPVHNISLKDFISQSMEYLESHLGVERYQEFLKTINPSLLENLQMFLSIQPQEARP
Assay: co-IP

binding: binds
binding (record 2): binds
Molecule: FLAG-tagged Xrn1 (wild type) (from UniProt P22147 1-1528) (enzyme)

binding: binds
B1: Pat1 (natural protein, S. cerevisiae (endogenous in yeast), UniProt P25644 1-796, looked up)
chain: MSFFGLENSGNARDGPLDFEESYKGYGEHELEENDYLNDETFGDNVQVGTDFDFGNPHSSGSSGNAIGGNGVGATARSYVAATAEGISGPRTDGTAAAGPLDLKPMESLWSTAPPPAMAPSPQSTMAPAPAPQQMAPLQPILSMQDLERQQRQMQQQFMNFHAMGHPQGLPQGPPQQQFPMQPASGQPGPSQFAPPPPPPGVNVNMNQMPMGPVQVPVQASPSPIGMSNTPSPGPVVGATKMPLQSGRRSKRDLSPEEQRRLQIRHAKVEKILKYSGLMTPRDKDFITRYQLSQIVTEDPYNEDFYFQVYKIIQRGGITSESNKGLIARAYLEHSGHRLGGRYKRTDIALQRMQSQVEKAVTVAKERPSKLKDQQAAAGNSSQDNKQANTVLGKISSTLNSKNPRRQLQIPRQQPSDPDALKDVTDSLTNVDLASSGSSSTGSSAAAVASKQRRRSSYAFNNGNGATNLNKSGGKKFILELIETVYEEILDLEANLRNGQQTDSTAMWEALHIDDSSYDVNPFISMLSFDKGIKIMPRIFNFLDKQQKLKILQKIFNELSHLQIIILSSYKTTPKPTLTQLKKVDLFQMIILKIIVSFLSNNSNFIEIMGLLLQLIRNNNVSFLTTSKIGLNLITILISRAALIKQDSSRSNILSSPEISTWNEIYDKLFTSLESKIQLIFPPREYNDHIMRLQNDKFMDEAYIWQFLASLALSGKLNHQRIIIDEVRDEIFATINEAETLQKKEKELSVLPQRSQELDTELKSIIYNKEKLYQDLNLFLNVMGLVYRDGEISELK
